PubChem BioAssay AID652243 | Drosophila RNAi Screening Center, 2013
The screen tested about 24,000 reagents; shown is a random part of those with a known target gene and a result. Of all reagents, 246 (1%) are marked active. 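Plates not normalised; calls are printed but the firefly/Renilla ratio behind them is not deposited; fold cut for lowering reported inconsistently.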 Raw values vary from plate to plate and are shown uncorrected. Reagents against one gene are numbered here. The record does not give: the amount of reagent.

Assay: 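Fly regulators of androgen-dependent reporter output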 (primary screen)
Cells: Drosophila S2R+ cells
Reagent: long dsRNA against Drosophila genes
Time to read-out: 72 h (48 h, then 24 h hormone)
Challenge: synthetic androgen R1881 at 10 nM for 24 h
Measurement: 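Firefly light from an androgen-responsive reporter and Renilla control light per well, raw and unnormalised, for each of two replicates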
Direction: firefly reporter light: higher = more light from androgen-responsive reporter; Renilla control light: higher = more constitutive control signal (cell number, transfection)
Rule for the call: 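Across duplicate plates, a knock-down whose log firefly/Renilla ratio shifted a set fold down or up from the GFP/LacZ control mean was a hit; the downward cut appears as both 1.5 and 3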
Calls: active = hit: reporter lowered or raised; inactive = no hit

CG12490
- firefly reporter light, replicate 1: 2.48e5
- firefly reporter light, replicate 2: 3.10e5
- Renilla control light, replicate 1: 2.01e6
- Renilla control light, replicate 2: 1.70e6
- outcome: inactive

Spindly
- firefly reporter light, replicate 1: 1.33e5
- firefly reporter light, replicate 2: 1.58e5
- Renilla control light, replicate 1: 7.14e5
- Renilla control light, replicate 2: 6.54e5
- outcome: inactive

Ir7e (Ionotropic receptor 7e)
- firefly reporter light, replicate 1: 4.88e5
- firefly reporter light, replicate 2: 4.99e5
- Renilla control light, replicate 1: 1.46e6
- Renilla control light, replicate 2: 2.60e6
- outcome: inactive

CG9863
- firefly reporter light, replicate 1: 3.23e5
- firefly reporter light, replicate 2: 7.00e5
- Renilla control light, replicate 1: 6.66e5
- Renilla control light, replicate 2: 1.40e6
- outcome: inactive

CG11018 #1
- firefly reporter light, replicate 1: 9.96e5
- firefly reporter light, replicate 2: 5.37e5
- Renilla control light, replicate 1: 9.03e5
- Renilla control light, replicate 2: 8.35e5
- outcome: inactive

CG11018 #2
- firefly reporter light, replicate 1: 4.39e5
- firefly reporter light, replicate 2: 5.56e5
- Renilla control light, replicate 1: 1.07e6
- Renilla control light, replicate 2: 9.99e5
- outcome: inactive

hid (head involution defective) #1
- firefly reporter light, replicate 1: 1.91e5
- firefly reporter light, replicate 2: 2.04e5
- Renilla control light, replicate 1: 1.55e6
- Renilla control light, replicate 2: 2.04e6
- outcome: inactive

hid (head involution defective) #2
- firefly reporter light, replicate 1: 6.77e5
- firefly reporter light, replicate 2: 6.28e5
- Renilla control light, replicate 1: 1.21e6
- Renilla control light, replicate 2: 7.57e5
- outcome: inactive

CG17193
- firefly reporter light, replicate 1: 2.42e5
- firefly reporter light, replicate 2: 3.20e5
- Renilla control light, replicate 1: 3.07e6
- Renilla control light, replicate 2: 3.31e6
- outcome: inactive

mRpL24 (mitochondrial ribosomal protein L24)
- firefly reporter light, replicate 1: 6.44e5
- firefly reporter light, replicate 2: 8.59e5
- Renilla control light, replicate 1: 1.33e6
- Renilla control light, replicate 2: 1.80e6
- outcome: inactive

ex (expanded) #1
- firefly reporter light, replicate 1: 7.37e5
- firefly reporter light, replicate 2: 6.51e5
- Renilla control light, replicate 1: 1.84e6
- Renilla control light, replicate 2: 1.28e6
- outcome: inactive

ex (expanded) #2
- firefly reporter light, replicate 1: 5.47e5
- firefly reporter light, replicate 2: 4.20e5
- Renilla control light, replicate 1: 6.34e5
- Renilla control light, replicate 2: 5.47e5
- outcome: inactive

CG12620 #1
- firefly reporter light, replicate 1: 2.27e5
- firefly reporter light, replicate 2: 2.13e5
- Renilla control light, replicate 1: 1.83e6
- Renilla control light, replicate 2: 2.41e6
- outcome: inactive

CG12620 #2
- firefly reporter light, replicate 1: 7.90e5
- firefly reporter light, replicate 2: 1.16e6
- Renilla control light, replicate 1: 8.92e5
- Renilla control light, replicate 2: 1.01e6
- outcome: inactive
